Test results as given in patent publication US6475781.
Results are given in words; binding and its absence hold for the method and conditions named. Some entries that bind do so weakly or less than the wild type.

Sequences of proteins named here, by UniProt entry; tags and fusion partners are left off. Residues count along the entry.
UniProt P01127, residues 82-190: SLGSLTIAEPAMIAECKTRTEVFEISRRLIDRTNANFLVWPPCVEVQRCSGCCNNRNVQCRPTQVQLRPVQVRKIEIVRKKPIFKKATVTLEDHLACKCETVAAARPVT

Target: human PDGF-B (c-sis) (human) (UniProt P01127)
Test: immunoprecipitation of cell lysate of c-sis transformed Balb/c 3T3 cells, non-reducing SDS-PAGE

For “human PDGF-B (c-sis) (from UniProt P01127 82-190) (ligand)”, the binding was “binds”.
